In publication doi:10.1101/2020.10.02.323600:
No constants are given. Whether binding was seen depends on the method and setting. Tags and fused reporters may be left off the sequences shown.

The chains behind the UniProt entries cited, without tags or fusion partners. Residues count along the entry.
GST/MDRID (Q7K6A5, residues 341-788): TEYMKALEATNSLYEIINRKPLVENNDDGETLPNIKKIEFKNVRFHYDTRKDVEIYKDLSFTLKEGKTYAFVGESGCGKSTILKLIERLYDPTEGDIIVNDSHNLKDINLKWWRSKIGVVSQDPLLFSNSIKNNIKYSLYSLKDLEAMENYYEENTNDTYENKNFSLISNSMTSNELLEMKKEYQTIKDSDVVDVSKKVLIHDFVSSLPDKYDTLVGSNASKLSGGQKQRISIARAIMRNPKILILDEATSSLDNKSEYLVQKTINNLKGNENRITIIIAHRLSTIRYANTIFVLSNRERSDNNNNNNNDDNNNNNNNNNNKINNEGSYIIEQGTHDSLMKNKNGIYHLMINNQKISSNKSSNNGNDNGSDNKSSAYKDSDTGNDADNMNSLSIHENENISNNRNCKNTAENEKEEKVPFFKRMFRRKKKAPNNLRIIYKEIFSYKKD
GST/MDRCD (Q7K6A5, residues 1054-1419): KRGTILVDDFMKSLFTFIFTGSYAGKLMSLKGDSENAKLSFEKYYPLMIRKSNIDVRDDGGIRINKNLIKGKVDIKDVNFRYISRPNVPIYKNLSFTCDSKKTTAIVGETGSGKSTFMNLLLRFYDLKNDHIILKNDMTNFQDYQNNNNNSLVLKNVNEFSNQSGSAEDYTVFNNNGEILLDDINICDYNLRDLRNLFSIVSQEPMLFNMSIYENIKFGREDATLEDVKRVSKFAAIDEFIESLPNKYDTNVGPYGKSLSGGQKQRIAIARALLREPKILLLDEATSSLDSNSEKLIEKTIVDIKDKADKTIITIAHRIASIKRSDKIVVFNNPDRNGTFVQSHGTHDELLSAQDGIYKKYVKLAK

Target: T1, GST/ScAtg18 (S. cerevisiae) (UniProt P43601)
T1 sequence: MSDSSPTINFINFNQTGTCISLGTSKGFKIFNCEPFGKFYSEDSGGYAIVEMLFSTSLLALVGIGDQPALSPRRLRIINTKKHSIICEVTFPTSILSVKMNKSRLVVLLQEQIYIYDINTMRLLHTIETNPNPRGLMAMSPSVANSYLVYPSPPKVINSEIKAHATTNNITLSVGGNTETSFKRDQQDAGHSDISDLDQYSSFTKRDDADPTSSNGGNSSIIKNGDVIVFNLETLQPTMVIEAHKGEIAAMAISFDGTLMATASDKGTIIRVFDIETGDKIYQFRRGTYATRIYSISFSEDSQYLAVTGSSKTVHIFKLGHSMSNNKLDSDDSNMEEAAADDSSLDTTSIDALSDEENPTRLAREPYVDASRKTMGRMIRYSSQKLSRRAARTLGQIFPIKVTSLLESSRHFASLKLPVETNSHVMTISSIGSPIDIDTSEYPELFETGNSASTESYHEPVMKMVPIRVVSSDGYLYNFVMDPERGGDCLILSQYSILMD
Assay: far-Western, overlay or dot blot

Q: “GST/MDRCD (from UniProt Q7K6A5 1054-1419) (domain or fragment)” was tested. Which binding did it give?
A: Its binding is “no binding (tested: 2.5 µg/ml)”.

Q: With “GST/MDRID (from UniProt Q7K6A5 341-788) (domain or fragment)” as the substance, how does the binding read?
A: The binding was “no binding (tested: 2.5 µg/ml)”.
